Residue numbers refer to the chain shown, from its start. These are yes or no findings as the source states them, for the method shown. Some results given as binding are weak or reduced against the parent protein; the word gives no strength. Tags and fused reporters may be left off the sequences shown. One block for each binder: values may come before it.
Columns and labels:
Assay in all cases: two-hybrid; S. cerevisiae AH109 co-transformants (pGBKT7 and pGADT7), grown at 30°C, replated on non-selection (+HIS) and selection (−HIS) plates
[1] = target: Rab7 (yeast two-hybrid fusion) (UniProt P51149)
[2] = target: T1, SKIP (yeast two-hybrid fusion) (UniProt Q8IWE5)
T1 sequence: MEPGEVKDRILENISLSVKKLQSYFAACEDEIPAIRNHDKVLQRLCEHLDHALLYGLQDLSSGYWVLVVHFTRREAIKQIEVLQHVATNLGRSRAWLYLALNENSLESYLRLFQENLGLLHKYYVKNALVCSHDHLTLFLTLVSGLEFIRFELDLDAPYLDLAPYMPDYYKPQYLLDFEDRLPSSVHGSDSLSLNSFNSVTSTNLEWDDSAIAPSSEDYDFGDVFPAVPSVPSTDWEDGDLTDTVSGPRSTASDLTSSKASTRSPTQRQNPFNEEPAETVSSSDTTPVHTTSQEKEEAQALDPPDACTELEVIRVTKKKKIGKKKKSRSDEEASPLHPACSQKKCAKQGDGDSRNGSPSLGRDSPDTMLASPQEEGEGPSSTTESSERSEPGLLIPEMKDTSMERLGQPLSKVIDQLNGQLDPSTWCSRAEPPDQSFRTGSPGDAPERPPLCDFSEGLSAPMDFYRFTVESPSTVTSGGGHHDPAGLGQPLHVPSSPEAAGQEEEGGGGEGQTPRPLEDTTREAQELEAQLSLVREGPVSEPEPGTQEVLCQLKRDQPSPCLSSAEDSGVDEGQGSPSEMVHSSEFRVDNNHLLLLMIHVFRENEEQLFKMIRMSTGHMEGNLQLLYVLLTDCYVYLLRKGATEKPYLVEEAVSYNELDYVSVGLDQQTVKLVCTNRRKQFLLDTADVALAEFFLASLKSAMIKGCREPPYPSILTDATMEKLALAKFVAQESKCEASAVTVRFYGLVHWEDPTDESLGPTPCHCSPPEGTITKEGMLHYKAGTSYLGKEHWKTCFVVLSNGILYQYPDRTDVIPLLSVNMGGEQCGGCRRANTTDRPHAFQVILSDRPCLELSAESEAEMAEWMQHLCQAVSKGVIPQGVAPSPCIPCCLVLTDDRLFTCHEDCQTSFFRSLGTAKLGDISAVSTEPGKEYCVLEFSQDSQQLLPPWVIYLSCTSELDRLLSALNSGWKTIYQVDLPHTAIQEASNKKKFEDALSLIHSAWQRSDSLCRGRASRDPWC

By UniProt entry, the sequences of proteins in these tests, tags left out.
UniProt P51149: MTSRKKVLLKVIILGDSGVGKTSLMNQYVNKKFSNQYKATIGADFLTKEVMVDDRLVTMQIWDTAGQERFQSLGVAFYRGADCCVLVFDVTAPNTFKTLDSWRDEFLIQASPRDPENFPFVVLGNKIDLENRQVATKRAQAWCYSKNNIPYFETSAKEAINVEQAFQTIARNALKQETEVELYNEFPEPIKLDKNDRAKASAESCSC

[3] = target: T2, Vps41-T146P (yeast two-hybrid fusion) (human) (UniProt P49754)
T2 sequence: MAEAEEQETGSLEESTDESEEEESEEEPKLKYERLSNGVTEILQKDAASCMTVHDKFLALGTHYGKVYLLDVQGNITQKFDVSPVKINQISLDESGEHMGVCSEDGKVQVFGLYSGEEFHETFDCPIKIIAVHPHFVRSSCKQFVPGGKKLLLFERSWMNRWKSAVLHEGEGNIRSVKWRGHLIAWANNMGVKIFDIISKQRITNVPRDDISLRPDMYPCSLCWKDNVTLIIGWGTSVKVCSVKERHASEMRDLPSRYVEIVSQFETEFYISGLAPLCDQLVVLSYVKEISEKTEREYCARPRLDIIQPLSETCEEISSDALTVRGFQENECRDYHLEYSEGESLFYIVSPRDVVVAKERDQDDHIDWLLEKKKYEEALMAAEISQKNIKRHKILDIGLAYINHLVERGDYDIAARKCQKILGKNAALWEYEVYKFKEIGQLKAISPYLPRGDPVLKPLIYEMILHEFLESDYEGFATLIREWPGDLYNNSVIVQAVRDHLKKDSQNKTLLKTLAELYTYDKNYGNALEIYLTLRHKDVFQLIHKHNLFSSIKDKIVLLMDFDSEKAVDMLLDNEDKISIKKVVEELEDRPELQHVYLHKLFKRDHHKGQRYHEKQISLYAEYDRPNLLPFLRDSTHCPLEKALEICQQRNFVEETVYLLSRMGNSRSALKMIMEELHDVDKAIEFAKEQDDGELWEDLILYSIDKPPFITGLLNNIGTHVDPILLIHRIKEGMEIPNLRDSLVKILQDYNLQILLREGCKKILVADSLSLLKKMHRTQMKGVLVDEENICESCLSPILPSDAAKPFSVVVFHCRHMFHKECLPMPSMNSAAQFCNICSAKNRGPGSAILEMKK

[4] = target: T3, hVps41 (yeast two-hybrid fusion) (human) (UniProt P49754)
T3 sequence: T2 sequence with P146T

[5] = target: T4, Arl8b (yeast two-hybrid fusion, Arl8b-pGBKT7), Q9NVJ2; conditions: remark: other sources report otherwise
T4 chain: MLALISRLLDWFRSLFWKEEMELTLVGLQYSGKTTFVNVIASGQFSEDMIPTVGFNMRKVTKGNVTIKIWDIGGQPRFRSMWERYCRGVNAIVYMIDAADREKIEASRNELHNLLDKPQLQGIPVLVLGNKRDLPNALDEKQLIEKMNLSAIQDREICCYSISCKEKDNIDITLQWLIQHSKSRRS

[6] = target: T5, hVps18 (yeast two-hybrid fusion) (human) (UniProt Q9P253)
T5 sequence: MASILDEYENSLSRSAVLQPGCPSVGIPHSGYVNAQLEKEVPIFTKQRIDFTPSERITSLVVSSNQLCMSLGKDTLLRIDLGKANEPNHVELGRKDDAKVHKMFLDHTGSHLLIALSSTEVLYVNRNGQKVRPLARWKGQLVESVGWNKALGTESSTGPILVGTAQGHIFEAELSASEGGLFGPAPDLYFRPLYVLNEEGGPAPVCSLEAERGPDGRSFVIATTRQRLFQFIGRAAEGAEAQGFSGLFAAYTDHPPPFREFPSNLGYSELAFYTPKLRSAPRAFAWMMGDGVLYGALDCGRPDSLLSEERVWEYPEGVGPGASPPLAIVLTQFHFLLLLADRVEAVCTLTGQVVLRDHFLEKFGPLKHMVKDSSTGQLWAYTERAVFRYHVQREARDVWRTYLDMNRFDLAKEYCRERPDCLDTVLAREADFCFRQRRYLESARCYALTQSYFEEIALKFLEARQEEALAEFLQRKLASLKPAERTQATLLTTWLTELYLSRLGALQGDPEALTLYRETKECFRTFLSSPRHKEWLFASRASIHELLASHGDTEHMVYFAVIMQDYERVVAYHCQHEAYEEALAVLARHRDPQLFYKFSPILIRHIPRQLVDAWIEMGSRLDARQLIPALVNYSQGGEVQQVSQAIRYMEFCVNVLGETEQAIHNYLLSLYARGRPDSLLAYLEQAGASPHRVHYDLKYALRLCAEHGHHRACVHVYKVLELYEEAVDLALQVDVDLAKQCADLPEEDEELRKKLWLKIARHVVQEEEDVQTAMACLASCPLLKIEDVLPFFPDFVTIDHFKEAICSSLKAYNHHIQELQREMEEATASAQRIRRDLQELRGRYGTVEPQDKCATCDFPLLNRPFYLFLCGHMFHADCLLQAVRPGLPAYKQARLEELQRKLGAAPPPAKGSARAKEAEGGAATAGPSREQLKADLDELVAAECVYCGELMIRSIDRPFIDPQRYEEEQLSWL

binding [1]: no binding
binding [2]: no binding
binding [3]: binds
binding [4]: binds
B1: hVps18 (yeast two-hybrid fusion) (protein, UniProt Q9P253 1-973)
chain: T5 sequence

binding [5]: no binding
B2: hVps18 (yeast two-hybrid fusion), Q9P253 1-973 (protein)
chain: T5 sequence

binding [1]: no binding
binding [2]: no binding
binding [6]: binds
B3: hVps16 (yeast two-hybrid fusion) (protein, UniProt Q9H269 1-839)
chain: MDCYTANWNPLGDSAFYRKYELYSMDWDLKEELRDCLVAAAPYGGPIALLRNPWRKEKAASVRPVLDIYSASGMPLASLLWKSGPVVSLGWSAEEELLCVQEDGAVLVYGLHGDFRRHFSMGNEVLQNRVLDARIFHTEFGSGVAILTGAHRFTLSANVGDLKLRRMPEVPGLQSAPSCWTVLCQDRVAHILLAVGPDLYLLDHAACSAVTPPGLAPGVSSFLQMAVSFTYRHLALFTDTGYIWMGTASLKEKLCEFNCNIRAPPKQMVWCSRPRSKERAVVVAWERRLMVVGDAPESIQFVLDEDSYLVPELDGVRIFSRSTHEFLHEVPAASEEIFKIASMAPGALLLEAQKEYEKESQKADEYLREIQELGQLTQAVQQCIEAAGHEHQPDMQKSLLRAASFGKCFLDRFPPDSFVHMCQDLRVLNAVRDYHIGIPLTYSQYKQLTIQVLLDRLVLRRLYPLAIQICEYLRLPEVQGVSRILAHWACYKVQQKDVSDEDVARAINQKLGDTPGVSYSDIAARAYGCGRTELAIKLLEYEPRSGEQVPLLLKMKRSKLALSKAIESGDTDLVFTVLLHLKNELNRGDFFMTLRNQPMALSLYRQFCKHQELETLKDLYNQDDNHQELGSFHIRASYAAEERIEGRVAALQTAADAFYKAKNEFAAKATEDQMRLLRLQRRLEDELGGQFLDLSLHDTVTTLILGGHNKRAEQLARDFRIPDKRLWWLKLTALADLEDWEELEKFSKSKKSPIGYLPFVEICMKQHNKYEAKKYASRVGPEQKVKALLLVGDVAQAADVAIEHRNEAELSLVLSHCTGATDGATADKIQRARAQAQKK

Source: PMC4432227
